Strings that start with PEPTIDE1 are HELM notation: dots part the residues, brackets hold end groups and non-standard residues.
Assay: general procedure: Boc solid-phase peptide synthesis; Boc-Pro esterified to 2% cross-linked polystyrene-divinylbenzene; dicyclohexylcarbodiimide

For “PEPTIDE1{Y.[dW].L.R.W.P}$PEPTIDE1,PEPTIDE1,6:R2-1:R1$$$V2.0”, which “final HPLC purity” value (late stage modification step, HPLC) is on record?
Its value is 86%.

For H-Tyr(Bzl)-D-Trp-Leu-Arg-Trp-Pro-OCH2, which crude mass (whole synthesis, scale 2 mmol) is on record?
Its crude mass is 2.22 g.

— patent publication US4659691A (Merck & Co., Inc., priority 1985, dated 1987)
